The values below come from article PMC8560770.

Protein sequences, listed by entry. Tags and fused reporters are not part of them. Lines headed by an entry give the natural chain unless they say otherwise; changes in a name come on top. Chains listed by the source or under a name are the forms on record and can include a tag or linker. Residues count along the entry.
UniProt P57678: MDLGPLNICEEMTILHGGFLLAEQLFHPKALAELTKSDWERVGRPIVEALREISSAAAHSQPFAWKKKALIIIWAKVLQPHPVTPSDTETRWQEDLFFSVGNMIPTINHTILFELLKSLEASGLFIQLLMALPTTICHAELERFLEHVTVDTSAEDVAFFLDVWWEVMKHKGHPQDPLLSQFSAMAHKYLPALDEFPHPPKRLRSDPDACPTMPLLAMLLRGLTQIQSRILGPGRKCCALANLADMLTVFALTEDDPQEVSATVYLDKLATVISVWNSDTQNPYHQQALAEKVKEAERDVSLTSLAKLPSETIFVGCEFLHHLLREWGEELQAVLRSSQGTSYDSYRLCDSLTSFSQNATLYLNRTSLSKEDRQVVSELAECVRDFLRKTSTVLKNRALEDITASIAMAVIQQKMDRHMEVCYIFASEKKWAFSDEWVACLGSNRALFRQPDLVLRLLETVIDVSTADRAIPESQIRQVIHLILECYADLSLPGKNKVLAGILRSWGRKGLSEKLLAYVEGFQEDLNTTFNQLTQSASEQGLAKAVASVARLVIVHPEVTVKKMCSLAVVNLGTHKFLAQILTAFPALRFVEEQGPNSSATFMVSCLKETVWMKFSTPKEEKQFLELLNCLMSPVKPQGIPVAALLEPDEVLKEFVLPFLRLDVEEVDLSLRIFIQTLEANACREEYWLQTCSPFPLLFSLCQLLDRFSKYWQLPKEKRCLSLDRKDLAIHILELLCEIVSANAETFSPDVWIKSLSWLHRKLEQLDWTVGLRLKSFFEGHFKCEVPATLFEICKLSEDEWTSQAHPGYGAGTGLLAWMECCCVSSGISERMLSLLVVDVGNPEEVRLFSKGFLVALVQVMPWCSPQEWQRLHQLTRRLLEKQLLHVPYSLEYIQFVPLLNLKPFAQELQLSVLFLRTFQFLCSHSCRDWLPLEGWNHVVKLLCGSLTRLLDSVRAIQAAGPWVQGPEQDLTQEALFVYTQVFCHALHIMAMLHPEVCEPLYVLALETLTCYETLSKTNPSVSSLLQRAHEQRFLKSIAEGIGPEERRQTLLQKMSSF
GST-tagged Gemin4 (amino acids 1-370): residues 1-370 of P57678
UniProt Q96RR4: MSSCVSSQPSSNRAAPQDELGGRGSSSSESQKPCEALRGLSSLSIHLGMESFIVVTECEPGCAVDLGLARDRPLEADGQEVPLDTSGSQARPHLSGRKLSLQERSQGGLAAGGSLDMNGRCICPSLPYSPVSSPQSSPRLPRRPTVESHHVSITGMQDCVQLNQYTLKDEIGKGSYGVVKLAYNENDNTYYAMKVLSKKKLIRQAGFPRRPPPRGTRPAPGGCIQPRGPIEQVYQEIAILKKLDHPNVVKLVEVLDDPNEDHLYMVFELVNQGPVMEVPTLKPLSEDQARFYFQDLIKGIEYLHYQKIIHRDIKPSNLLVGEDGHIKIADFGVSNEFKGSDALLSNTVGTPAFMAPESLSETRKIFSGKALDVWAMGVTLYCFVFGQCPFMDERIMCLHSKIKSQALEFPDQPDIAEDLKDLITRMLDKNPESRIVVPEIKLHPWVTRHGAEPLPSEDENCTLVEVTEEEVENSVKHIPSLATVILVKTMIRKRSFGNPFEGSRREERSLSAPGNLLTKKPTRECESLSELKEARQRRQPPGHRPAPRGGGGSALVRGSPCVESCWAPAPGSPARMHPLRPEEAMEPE
UniProt Q9UHI6: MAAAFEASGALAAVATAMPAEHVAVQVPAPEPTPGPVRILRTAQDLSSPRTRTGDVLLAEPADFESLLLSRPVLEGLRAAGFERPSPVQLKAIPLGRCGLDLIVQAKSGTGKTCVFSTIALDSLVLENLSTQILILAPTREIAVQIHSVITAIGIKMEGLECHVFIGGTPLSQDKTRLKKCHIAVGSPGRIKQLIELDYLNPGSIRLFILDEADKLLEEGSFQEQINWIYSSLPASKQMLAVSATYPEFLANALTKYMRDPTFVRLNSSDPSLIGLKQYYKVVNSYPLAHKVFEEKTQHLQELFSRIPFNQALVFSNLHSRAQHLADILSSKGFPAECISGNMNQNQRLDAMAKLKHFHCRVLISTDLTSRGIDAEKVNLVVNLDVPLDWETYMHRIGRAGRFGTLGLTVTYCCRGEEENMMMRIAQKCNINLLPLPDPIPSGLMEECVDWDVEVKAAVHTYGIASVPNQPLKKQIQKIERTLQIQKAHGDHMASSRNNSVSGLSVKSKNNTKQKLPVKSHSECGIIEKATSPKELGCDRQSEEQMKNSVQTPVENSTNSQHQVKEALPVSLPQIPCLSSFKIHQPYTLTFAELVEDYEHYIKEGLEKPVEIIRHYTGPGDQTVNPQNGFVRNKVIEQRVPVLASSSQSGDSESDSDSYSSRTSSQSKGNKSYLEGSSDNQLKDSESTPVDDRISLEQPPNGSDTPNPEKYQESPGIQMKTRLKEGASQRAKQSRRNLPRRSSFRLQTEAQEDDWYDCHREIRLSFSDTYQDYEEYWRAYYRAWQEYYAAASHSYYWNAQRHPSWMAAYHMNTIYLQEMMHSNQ

Results are given in words; binding and its absence hold for the method and conditions named. Binding seen in cells or lysates may run through a third protein. Some binding calls cover weakened binding; strength is not graded here.

In experiment [1] the target is Gemin4, endogenous in LNCaP cells (human (endogenous in LNCaP)) (UniProt P57678). As to the kind of experiment: co-IP; IPs of Gemin/SMN-1, -3, -4, CaMKK2 looked for in the precipitates (Supplementary Fig. 1); cells not given.
The target in experiment [2] is GST-tagged Gemin4 (amino acids 1-370) (UniProt P57678). The experiment is described as follows: pull-down; recombinant GST-tagged Gemin4 (aa 1-370) or equal amount of GST incubated with LNCaP cell lysate; CaMKK2 detected by western blot; only the target purified.
Experiment [3] concerns the target T1, Control peptide from the N-terminus of Gemin4 (amino acids 78-86), biotinylated.
T1 sequence (peptide, biotin): LQPHPVTPS
As to the kind of experiment: pull-down; biotinylated peptide as bait (Pierce Biotinylated Protein Interaction Kit, avidin/streptavidin) with LNCaP cell lysate, steady state or 24 h 10 nM R1881 or ethanol; western blot; only the target purified.

Experiment [4] has as its target Calcium/calmodulin-dependent protein kinase kinase 2 (CaMKK2), endogenous in LNCaP cells (human (endogenous in LNCaP)) (UniProt Q96RR4). The experiment is described as follows: co-IP; endogenous CaMKK2 IP (2.5 µg CaMKK2 antibody, 500 µg pre-cleared LNCaP lysate, overnight 4 °C, Protein A Dynabeads); control IgG; western blot for Gemin proteins. (Immunoblotting shows a protein as a band on a membrane.)

For “Calcium/calmodulin-dependent protein kinase kinase 2 (CaMKK2), endogenous in LNCaP cells (from UniProt Q96RR4 1-588)”, the binding result is “binds” in experiment [1], “binds” in experiment [2] and “no binding” in experiment [3].

For the substance “Gemin4, endogenous in LNCaP cells (from UniProt P57678 1-1058)”, the values for the binding entry in experiment [4] and in experiment [3] were “binds” and “no binding”, respectively.

For “Gemin3/DDX20, endogenous in LNCaP cells (from UniProt Q9UHI6 1-824)”, in experiment [3], the binding entry is recorded as “no binding”.
